Source: US20180028493A1, “INHIBITORS OF INDUCED MMP-1 PRODUCTION” (THE TRUSTEES OF COLUMBIA UNIVERSITY IN THE CITY OF NEW YORK, priority 2015, published 2018)
At least one structure is not confirmed: it was looked up by name or label, or the drawing left a doubt.

Tested on: IL-8 (CXCL8)
Experiment: IL-8 up regulation in SAECs treated with CSE
Assay type: cell-based
Conditions: SAEC, 5% CSE, 10 uM compound

`CCC(C)(C)C(=O)O[C@H]1C[C@@H](C)C=C2C=C[C@H](C)[C@H](CC[C@@H]3C[C@@H](O)CC(=O)O3)[C@H]21` [Compound 1, Simvastatin] was tested, and the “IL-8 levels after cigarette smoke treatment” value was “decreases the induction of IL-8”.
